Results are given in words; binding and its absence hold for the method and conditions named. Binding seen in cells or lysates may run through a third protein. A yes stands for co-enrichment or nearness to the bait. Other partners may have been found. Tags and fused reporters may be left off the sequences shown.
Target: FLAG-CBP-HA, wild type (UniProt P45481)
Test: affinity purification with mass spectrometry; HEK293T cells overexpressing Flag-CBP and COASY cDNA; CBP immunoprecipitated, COASY peptides found by mass spectrometry (Supplementary Fig. 5c-f)

Chains of the proteins cited; added tags and fusions are not shown.
UniProt P45481: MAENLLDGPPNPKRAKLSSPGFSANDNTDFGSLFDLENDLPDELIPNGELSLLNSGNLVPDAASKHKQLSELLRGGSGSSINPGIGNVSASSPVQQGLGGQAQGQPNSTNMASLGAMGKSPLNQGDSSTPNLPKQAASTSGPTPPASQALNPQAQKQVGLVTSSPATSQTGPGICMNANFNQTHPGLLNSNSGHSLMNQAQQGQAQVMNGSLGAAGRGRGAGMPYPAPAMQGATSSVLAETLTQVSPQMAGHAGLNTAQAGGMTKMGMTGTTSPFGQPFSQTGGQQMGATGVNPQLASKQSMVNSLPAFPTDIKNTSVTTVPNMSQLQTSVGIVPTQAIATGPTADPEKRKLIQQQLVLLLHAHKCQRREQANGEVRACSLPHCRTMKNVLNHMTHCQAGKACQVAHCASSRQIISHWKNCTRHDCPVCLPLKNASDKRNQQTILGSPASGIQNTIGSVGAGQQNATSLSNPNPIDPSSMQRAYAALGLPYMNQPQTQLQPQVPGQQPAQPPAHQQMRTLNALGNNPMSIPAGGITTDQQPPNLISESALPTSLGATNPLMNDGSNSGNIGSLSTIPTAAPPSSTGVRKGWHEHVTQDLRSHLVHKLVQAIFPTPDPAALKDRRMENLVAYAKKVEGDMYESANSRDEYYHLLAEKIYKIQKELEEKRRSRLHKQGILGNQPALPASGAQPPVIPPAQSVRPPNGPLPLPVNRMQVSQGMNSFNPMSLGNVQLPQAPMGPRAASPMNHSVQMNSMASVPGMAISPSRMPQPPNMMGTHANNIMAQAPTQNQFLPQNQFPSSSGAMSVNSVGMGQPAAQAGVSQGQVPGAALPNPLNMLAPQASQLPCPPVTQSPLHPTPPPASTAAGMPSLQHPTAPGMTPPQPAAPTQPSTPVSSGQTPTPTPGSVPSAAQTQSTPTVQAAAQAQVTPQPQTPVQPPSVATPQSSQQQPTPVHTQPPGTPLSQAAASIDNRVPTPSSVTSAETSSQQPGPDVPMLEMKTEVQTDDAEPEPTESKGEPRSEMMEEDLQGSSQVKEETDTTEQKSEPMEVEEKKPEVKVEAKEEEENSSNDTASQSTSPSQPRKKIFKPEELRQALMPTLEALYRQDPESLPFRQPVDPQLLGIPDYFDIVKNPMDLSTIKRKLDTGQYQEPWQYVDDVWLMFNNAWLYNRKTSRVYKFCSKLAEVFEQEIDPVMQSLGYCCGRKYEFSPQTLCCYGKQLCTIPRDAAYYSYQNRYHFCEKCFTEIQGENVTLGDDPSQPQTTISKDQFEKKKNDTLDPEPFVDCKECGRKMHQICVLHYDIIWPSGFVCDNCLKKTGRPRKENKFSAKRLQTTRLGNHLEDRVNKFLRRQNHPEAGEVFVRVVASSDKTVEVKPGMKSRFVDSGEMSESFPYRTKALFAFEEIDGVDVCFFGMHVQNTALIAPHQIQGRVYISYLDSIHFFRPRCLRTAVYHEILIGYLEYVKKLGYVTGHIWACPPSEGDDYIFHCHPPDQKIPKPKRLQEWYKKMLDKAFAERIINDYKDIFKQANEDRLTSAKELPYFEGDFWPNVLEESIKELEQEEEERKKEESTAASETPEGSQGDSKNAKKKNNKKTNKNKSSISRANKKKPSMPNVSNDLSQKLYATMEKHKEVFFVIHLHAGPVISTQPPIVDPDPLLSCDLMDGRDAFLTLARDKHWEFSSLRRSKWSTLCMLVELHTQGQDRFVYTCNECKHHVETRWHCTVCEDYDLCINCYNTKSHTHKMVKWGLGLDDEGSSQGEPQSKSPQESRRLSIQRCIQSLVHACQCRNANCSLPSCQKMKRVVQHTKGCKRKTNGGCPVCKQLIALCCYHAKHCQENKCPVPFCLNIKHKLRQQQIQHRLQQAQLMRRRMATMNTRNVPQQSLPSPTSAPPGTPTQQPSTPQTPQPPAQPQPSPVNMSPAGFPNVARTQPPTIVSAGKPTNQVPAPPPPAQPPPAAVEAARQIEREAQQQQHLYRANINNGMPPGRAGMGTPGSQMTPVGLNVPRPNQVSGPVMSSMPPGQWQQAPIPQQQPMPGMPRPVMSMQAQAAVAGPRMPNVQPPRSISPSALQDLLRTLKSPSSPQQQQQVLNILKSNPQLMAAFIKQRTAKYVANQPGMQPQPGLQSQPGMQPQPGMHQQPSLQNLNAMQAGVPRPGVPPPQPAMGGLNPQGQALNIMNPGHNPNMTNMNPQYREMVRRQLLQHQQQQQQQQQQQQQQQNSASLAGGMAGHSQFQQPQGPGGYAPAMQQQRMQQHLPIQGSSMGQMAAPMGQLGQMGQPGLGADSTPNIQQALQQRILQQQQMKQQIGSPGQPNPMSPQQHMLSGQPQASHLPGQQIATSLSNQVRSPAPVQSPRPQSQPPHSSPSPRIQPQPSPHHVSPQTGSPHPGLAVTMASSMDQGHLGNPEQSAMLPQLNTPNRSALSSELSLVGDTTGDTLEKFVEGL

B1: COASY, overexpressed from cDNA with Flag-CBP (protein, UniProt Q13057 1-564)
chain: MAVFRSGLLVLTTPLASLAPRLASILTSAARLVNHTLYVHLQPGMSLEGPAQPQSSPVQATFEVLDFITHLYAGADVHRHLDVRILLTNIRTKSTFLPPLPTSVQNLAHPPEVVLTDFQTLDGSQYNPVKQQLVRYATSCYSCCPRLASVLLYSDYGIGEVPVEPLDVPLPSTIRPASPVAGSPKQPVRGYYRGAVGGTFDRLHNAHKVLLSVACILAQEQLVVGVADKDLLKSKLLPELLQPYTERVEHLSEFLVDIKPSLTFDVIPLLDPYGPAGSDPSLEFLVVSEETYRGGMAINRFRLENDLEELALYQIQLLKDLRHTENEEDKVSSSSFRQRMLGNLLRPPYERPELPTCLYVIGLTGISGSGKSSIAQRLKGLGAFVIDSDHLGHRAYAPGGPAYQPVVEAFGTDILHKDGIINRKVLGSRVFGNKKQLKILTDIMWPIIAKLAREEMDRAVAEGKRVCVIDAAVLLEAGWQNLVHEVWTAVIPETEAVRRIVERDGLSEAAAQSRLQSQMSGQQLVEQSHVVLSTLWEPHITQRQVEKAWALLQKRIPKTHQALD
For B1, the binding was “binds”.

Reference: article PMC5847545
